Results on one substance are retold here after article PMC9366055.

Results are given in words; binding and its absence hold for the method and conditions named. In cells and extracts the contact can be indirect. A result given as binding can be weak or reduced; the word gives no strength. Tags and fused reporters may be left off the sequences shown.

Assay [1] has as its target T1, GST-HrcQ (X. euvesicatoria) (UniProt Q9WWF7).
T1 sequence: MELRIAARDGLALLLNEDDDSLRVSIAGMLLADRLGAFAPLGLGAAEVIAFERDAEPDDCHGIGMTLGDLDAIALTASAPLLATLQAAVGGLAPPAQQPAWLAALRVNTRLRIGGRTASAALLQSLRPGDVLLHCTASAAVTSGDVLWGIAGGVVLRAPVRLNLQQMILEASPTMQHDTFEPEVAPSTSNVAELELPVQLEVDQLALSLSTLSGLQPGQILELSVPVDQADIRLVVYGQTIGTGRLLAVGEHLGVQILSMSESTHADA
Kind of assay: pull-down; GST or GST fusion from E. coli BL21 (DE3) lysate immobilised on glutathione sepharose, washed, incubated with a bacterial lysate containing the c-Myc-tagged partner for 2 h at 4°C; eluted with Laemmli buffer; immunoblot with c-Myc- and GST-specific antibodies; only the target purified. On the technique in general: Immunoblotting shows a protein as a band on a membrane.

Assay [2] has as its target T2, GST-HpaB (X. euvesicatoria) (UniProt Q9WWG3).
T2 sequence: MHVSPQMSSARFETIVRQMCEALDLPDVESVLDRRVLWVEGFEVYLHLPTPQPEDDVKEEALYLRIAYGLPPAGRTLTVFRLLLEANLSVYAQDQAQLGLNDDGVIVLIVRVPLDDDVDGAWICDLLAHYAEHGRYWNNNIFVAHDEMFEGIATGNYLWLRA
Described as above.

On to “HpaA_(∆2-70)-c-Myc (X. euvesicatoria strain 85-10) (domain or fragment)”, for which the binding result in assay [1] and in assay [2] was “binds” throughout.
